From PMC4975489, “The Arabidopsis Protein Phosphatase PP2C38 Negatively Regulates the Central Immune Kinase BIK1” (PLoS Pathogens, 2016)
Results are given in words; binding and its absence hold for the method and conditions named. In cells and extracts the contact can be indirect. For some of these results: Binding calls can cover weak binding; strength is not graded here. For some of these results: Sequences can lack the tags named with a protein.

The chains behind the UniProt entries cited, without tags or fusion partners. Where a name states a change or a piece, a line headed by the entry shows the natural chain unless it says otherwise. Residues count along the entry.
UniProt C0LGT6, residues 25-1031: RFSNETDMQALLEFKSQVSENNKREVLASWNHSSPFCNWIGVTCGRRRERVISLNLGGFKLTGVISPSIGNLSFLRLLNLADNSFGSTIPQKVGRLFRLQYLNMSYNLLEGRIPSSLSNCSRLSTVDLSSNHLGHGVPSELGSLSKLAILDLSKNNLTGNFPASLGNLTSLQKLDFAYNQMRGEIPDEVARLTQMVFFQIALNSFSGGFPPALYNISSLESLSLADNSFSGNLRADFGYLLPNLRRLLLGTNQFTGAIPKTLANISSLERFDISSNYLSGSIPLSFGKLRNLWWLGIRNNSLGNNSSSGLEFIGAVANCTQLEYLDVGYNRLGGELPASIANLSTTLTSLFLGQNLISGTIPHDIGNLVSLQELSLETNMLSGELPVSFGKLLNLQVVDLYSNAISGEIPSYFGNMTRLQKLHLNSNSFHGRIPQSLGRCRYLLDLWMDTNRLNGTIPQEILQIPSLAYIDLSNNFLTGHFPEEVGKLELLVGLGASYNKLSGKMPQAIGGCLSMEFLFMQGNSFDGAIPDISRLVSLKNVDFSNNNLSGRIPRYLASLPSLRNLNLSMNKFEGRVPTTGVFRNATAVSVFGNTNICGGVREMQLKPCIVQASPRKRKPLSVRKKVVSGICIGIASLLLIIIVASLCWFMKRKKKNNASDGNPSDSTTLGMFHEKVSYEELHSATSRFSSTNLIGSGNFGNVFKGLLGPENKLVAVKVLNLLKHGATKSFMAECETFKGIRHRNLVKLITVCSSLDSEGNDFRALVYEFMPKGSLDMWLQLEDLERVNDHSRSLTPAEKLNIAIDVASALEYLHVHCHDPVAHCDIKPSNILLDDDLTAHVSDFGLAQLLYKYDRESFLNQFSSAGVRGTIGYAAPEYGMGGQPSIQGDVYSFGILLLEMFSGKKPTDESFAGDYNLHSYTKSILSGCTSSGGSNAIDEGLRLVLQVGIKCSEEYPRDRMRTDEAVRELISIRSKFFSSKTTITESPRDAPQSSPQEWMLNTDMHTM
UniProt Q9FL28: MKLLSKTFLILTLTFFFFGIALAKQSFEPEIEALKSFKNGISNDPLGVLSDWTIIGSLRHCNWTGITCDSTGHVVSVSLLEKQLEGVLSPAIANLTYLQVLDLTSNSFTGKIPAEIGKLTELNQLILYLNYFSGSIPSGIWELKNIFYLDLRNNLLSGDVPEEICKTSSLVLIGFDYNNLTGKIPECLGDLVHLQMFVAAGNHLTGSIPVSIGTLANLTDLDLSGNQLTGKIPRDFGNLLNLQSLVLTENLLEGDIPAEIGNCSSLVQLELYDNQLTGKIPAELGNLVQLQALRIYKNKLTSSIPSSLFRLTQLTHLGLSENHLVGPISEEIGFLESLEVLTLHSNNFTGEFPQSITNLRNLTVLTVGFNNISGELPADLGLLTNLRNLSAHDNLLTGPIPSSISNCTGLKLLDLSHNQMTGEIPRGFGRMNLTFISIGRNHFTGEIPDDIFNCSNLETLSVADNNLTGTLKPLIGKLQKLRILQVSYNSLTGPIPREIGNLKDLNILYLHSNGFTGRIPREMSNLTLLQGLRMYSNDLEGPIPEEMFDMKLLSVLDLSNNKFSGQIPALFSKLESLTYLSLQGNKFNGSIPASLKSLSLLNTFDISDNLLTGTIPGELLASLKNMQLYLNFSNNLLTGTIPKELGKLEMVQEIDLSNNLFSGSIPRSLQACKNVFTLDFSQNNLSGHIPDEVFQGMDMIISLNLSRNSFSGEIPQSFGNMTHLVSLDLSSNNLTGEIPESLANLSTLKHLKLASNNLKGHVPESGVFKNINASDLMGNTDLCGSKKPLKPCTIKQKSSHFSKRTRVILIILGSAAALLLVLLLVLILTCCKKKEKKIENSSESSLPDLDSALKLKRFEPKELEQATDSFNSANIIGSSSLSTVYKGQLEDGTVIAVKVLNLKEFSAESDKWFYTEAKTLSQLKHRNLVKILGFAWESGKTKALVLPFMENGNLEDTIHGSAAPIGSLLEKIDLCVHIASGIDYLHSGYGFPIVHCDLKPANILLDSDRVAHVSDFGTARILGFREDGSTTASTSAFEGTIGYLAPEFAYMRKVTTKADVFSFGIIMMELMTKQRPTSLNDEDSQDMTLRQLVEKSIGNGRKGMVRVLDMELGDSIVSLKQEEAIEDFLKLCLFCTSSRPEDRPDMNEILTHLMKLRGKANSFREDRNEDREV
UniProt Q93YW5: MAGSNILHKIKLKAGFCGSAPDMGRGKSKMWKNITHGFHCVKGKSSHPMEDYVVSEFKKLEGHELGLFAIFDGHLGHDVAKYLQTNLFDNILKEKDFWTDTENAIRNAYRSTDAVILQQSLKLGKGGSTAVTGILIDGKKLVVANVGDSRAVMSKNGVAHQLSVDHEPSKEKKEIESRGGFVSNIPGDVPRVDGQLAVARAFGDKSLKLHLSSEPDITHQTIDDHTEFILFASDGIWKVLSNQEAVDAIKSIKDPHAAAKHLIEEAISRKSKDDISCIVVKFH

Key:
Assay in all cases: co-IP; proteins transiently co-expressed in N. benthamiana leaves, treated or not with 100 nM elf18 or flg22 for 20 min; GFP-Trap immunoprecipitation at 4°C, immunoblot
[1] = molecular target: full-length EFR-GFP (Arabidopsis thaliana) (UniProt C0LGT6)
[2] = molecular target: kinase-dead EFR* (Arabidopsis thaliana) (UniProt C0LGT6)
[3] = molecular target: kinase-dead FLS2* (Arabidopsis thaliana) (UniProt Q9FL28)

Row | binding [1] | binding [2] | binding [3] | Molecule
1 | no binding |  |  | PP2C58-FLAG (from UniProt Q93YW5) (enzyme)
2 | no binding |  |  | PP2C58-HA (from UniProt Q93YW5) (enzyme)
3 |  | binds | binds | recombinant MBP-PP2C38 (enzyme, Arabidopsis thaliana, UniProt Q9LHJ9 1-385, looked up, PP2C38, protein phosphatase 2C of Arabidopsis thaliana (At3g12620); 'PP2C38 CDS was inserted between BamHI and SalI restriction sites of pMAL-c4E'; source: recombinant protein (PP2C38 CDS in pMAL-c4E, NEB)) MVSSATILRMVAPCWRRPSVKGDHSTRDANGRCDGLLWYKDSGNHVAGEFSMSVIQANNLLEDHSKLESGPVSMFDSGPQATFVGVYDGHGGPEAARFVNKHLFDNIRKFTSENHGMSANVITKAFLATEEDFLSLVRRQWQIKPQIASVGACCLVGIICSGLLYIANAGDSRVVLGRLEKAFKIVKAVQLSSEHNASLESVREELRSLHPNDPQIVVLKHKVWRVKGIIQVSRSIGDAYLKKAEFNREPLLAKFRVPEVFHKPILRAEPAITVHKIHPEDQFLIFASDGLWEHLSNQEAVDIVNTCPRNGIARKLIKTALREAAKKREMRYSDLKKIDRGVRRHFHDDITVIVVFLDSHLVSRSTSRRPLLSISGGGDLAGPST
